Data published in paper PMC7427332, “Tuning Transcription Factor Availability through Acetylation-Mediated Genomic Redistribution”.
For some of these results: Weaker means in comparison with the reference protein, sequence or condition of that experiment. For some of these results: The exact form of at least one protein or probe is not confirmed. For some of these results: At least one verdict was read from the data and is not stated in words by the source. For some of these results: The direction of at least one scale is not stated here.

Sequences of proteins named here, by UniProt entry; tags and fusion partners are left off. Residues count along the entry.
UniProt Q08874, 287-403: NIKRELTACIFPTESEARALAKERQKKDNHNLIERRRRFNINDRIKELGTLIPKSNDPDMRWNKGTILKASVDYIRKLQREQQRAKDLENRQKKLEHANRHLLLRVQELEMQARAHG
UniProt Q08874, 287-403 K350Q: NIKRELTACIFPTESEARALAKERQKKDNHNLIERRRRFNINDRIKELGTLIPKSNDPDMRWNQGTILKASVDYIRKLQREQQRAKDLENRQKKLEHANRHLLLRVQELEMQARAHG
UniProt Q08874, 287-403 K350R: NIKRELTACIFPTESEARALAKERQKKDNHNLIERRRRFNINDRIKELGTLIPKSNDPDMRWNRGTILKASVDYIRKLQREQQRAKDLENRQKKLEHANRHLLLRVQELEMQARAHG

What was measured:
[1] = target: MITF DNA-binding domain WT (bHLH-LZ) (UniProt Q08874); experiment: fluorescence anisotropy; conditions: FA: 10 mM Tris/HCl pH 7.5, 300 mM NaCl, 0.01% Triton X-100, 0.1 mg/mL BSA, 1.33 nM DNA, 25 C, 5 min; recombinant protein; residues 287-403; protein details: His (Ni-NTA purified, pETM-11 vector); label: 3'-fluorescein on strand 1
[2] = target: MITF DNA-binding domain K243Q K350Q (UniProt Q08874); experiment: fluorescence anisotropy; conditions: FA: 10 mM Tris/HCl pH 7.5, 300 mM NaCl, 0.01% Triton X-100, 0.1 mg/mL BSA, 1.33 nM DNA, 25 C, 5 min; recombinant protein; residues 287-403; protein details: His (Ni-NTA purified, pETM-11 vector); label: 3'-fluorescein on strand 1
[3] = target: MITF DNA-binding domain K243R K350R (UniProt Q08874); experiment: fluorescence anisotropy; conditions: FA: 10 mM Tris/HCl pH 7.5, 300 mM NaCl, 0.01% Triton X-100, 0.1 mg/mL BSA, 1.33 nM DNA, 25 C, 5 min; recombinant protein; residues 287-403; protein details: His (Ni-NTA purified, pETM-11 vector); label: 3'-fluorescein on strand 1; scale: fold lower affinity than WT protein on same site
[4] = target: MITF DNA-binding domain K243Q K350Q (UniProt Q08874); experiment: EMSA; conditions: ~256-fold more salmon sperm DNA needed to compete than for WT/K243R; EMSA: 25 mM HEPES pH 7.4, 150 mM KCl, 10% glycerol, 200 ug/ml BSA, 5 uM DTT, 20 min, 6% native gel; recombinant protein; residues 287-403; protein details: His (Ni-NTA purified, pETM-11 vector); label: 32P (alpha-32P-dCTP, both ends)
[5] = target: MITF DNA-binding domain K243R K350R (UniProt Q08874); experiment: EMSA; conditions: EMSA: 25 mM HEPES pH 7.4, 150 mM KCl, 10% glycerol, 200 ug/ml BSA, 5 uM DTT, 20 min, 6% native gel; recombinant protein; residues 287-403; protein details: His (Ni-NTA purified, pETM-11 vector); label: 32P (alpha-32P-dCTP, both ends)
[6] = target: MITF DNA-binding domain WT (bHLH-LZ) (UniProt Q08874); experiment: EMSA; conditions: EMSA: 25 mM HEPES pH 7.4, 150 mM KCl, 10% glycerol, 200 ug/ml BSA, 5 uM DTT, 20 min, 6% native gel; recombinant protein; residues 287-403; protein details: His (Ni-NTA purified, pETM-11 vector); label: 32P (alpha-32P-dCTP, both ends)

Sequence: GAGACCACGTGTTGAC (double strand) [E-box FA probe]
- binding result [1]: binds

Sequence: GAGATCACGACTTGAC (double strand) [HS (half-site, mutated CLEAR box) FA probe]
- binding result [2]: binds more weakly
- binding signal [3]: 4
- binding result [1]: binds more weakly

Sequence: CTAGACTTGTGGAGATCACGTGATGACTTCCTGATTCCT (double strand) [TCACGTGA EMSA probe]
- binding result [4]: binds
- binding result [5]: binds
- binding result [6]: binds
